# Measurements: the supplement of paper PMC8728848
# Some of the results follow.
# B1: GST Gap3 (Streptococcus parasanguinis) (protein)
# chain: MTKQLISEIYWNEIRKGENYLYGSQIKFQEDLVNFYNPQLASGKPIVTFKSRTNYQGDRHSPDLPILIQGNRYLLEYQIDAVPANSFFLQLDFFNRQAEQIESIVLRNSGESFIFPKDTFTYTLTLMSAGCQSVTYQKFMIYDINDEEKKNHIVENRYLRELLPKDLDLVKNLIEYI
# Columns and labels:
# Assay in all cases: glycan array binding signal (z-score within array); higher = stronger binding
# Settings in all cases: glycan notation: IUPAC condensed, linker removed
# [1] = biological target: GlcNAc(b1-2)[GlcNAc(b1-6)]Man(a1-6)[GlcNAc(b1-2)Man(a1-3)]Man(b1-4)GlcNAc(b1-4)[Fuc(a1-6)]GlcNAc
# How it was run: (§1)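 Glycan array data came from 3228 arrays in the Consortium for Functional Glycomics database, and only arrays with an available protein sequence were kept. Glycan names were put into IUPAC-condensed notation, and columns mapping to the same glycan were averaged. The binding signal is a within-array Z-score, averaged across arrays of one protein sequence run at different concentrations or buffers and across linkers. A negative Z-score can be read as non-binding.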
# [2] = biological target: GlcNAc(b1-2)[GlcNAc(b1-6)]Man(a1-6)[GlcNAc(b1-2)Man(a1-3)][GlcNAc(b1-4)]Man(b1-4)GlcNAc(b1-4)GlcNAc
# How it was run: as §1
# [3] = biological target: GlcNAc(b1-2)[GlcNAc(b1-6)]Man(a1-6)[GlcNAc(b1-4)][GlcNAc(b1-2)Man(a1-3)]Man(b1-4)GlcNAc(b1-4)GlcNAc
# How it was run: as §1
# [4] = biological target: GlcNAc(b1-3)Fuc
# How it was run: as §1
# [5] = biological target: GlcNAc(b1-3)Gal
# How it was run: as §1
# [6] = biological target: GlcNAc(b1-3)Gal(b1-3)GalNAc
# How it was run: as §1
# [7] = biological target: GlcNAc(b1-3)Gal(b1-4)Glc
# How it was run: as §1
# [8] = biological target: GlcNAc(b1-3)Gal(b1-4)GlcNAc
# How it was run: as §1
# [9] = biological target: GlcNAc(b1-3)Gal(b1-4)GlcNAc(b1-2)Man(a1-3)[GlcNAc(b1-3)Gal(b1-4)GlcNAc(b1-2)Man(a1-6)]Man(b1-4)GlcNAc(b1-4)GlcNAc
# How it was run: as §1
# [10] = biological target: GlcNAc(b1-3)Gal(b1-4)GlcNAc(b1-2)Man(a1-3)[GlcNAc(b1-3)Gal(b1-4)GlcNAc(b1-2)Man(a1-6)]Man(b1-4)GlcNAc(b1-4)[Fuc(a1-6)]GlcNAc
# How it was run: as §1
# [11] = biological target: GlcNAc(b1-3)Gal(b1-4)GlcNAc(b1-2)[GlcNAc(b1-3)Gal(b1-4)GlcNAc(b1-6)]Man(a1-6)[GlcNAc(b1-3)Gal(b1-4)GlcNAc(b1-2)Man(a1-3)]Man(b1-4)GlcNAc(b1-4)GlcNAc
# How it was run: as §1
# [12] = biological target: GlcNAc(b1-3)Gal(b1-4)GlcNAc(b1-3)Gal(b1-4)GlcNAc
# How it was run: as §1
# [13] = biological target: GlcNAc(b1-3)Gal(b1-4)GlcNAc(b1-3)Gal(b1-4)GlcNAc(b1-2)Man(a1-3)[GlcNAc(b1-3)Gal(b1-4)GlcNAc(b1-3)Gal(b1-4)GlcNAc(b1-2)Man(a1-6)]Man(b1-4)GlcNAc(b1-4)GlcNAc
# How it was run: as §1
# [14] = biological target: GlcNAc(b1-3)Gal(b1-4)GlcNAc(b1-3)Gal(b1-4)GlcNAc(b1-2)Man(a1-3)[GlcNAc(b1-3)Gal(b1-4)GlcNAc(b1-3)Gal(b1-4)GlcNAc(b1-2)Man(a1-6)]Man(b1-4)GlcNAc(b1-4)[Fuc(a1-6)]GlcNAc
# How it was run: as §1
# [15] = biological target: GlcNAc(b1-3)Gal(b1-4)GlcNAc(b1-3)Gal(b1-4)GlcNAc(b1-2)[GlcNAc(b1-3)Gal(b1-4)GlcNAc(b1-3)Gal(b1-4)GlcNAc(b1-6)]Man(a1-6)[GlcNAc(b1-3)Gal(b1-4)GlcNAc(b1-3)Gal(b1-4)GlcNAc(b1-2)Man(a1-3)]Man(b1-4)GlcNAc(b1-4)[Fuc(a1-6)]GlcNAc
# How it was run: as §1
# [16] = biological target: GlcNAc(b1-3)Gal(b1-4)GlcNAc(b1-3)Gal(b1-4)GlcNAc(b1-3)Gal(b1-4)GlcNAc(b1-2)Man(a1-3)[GlcNAc(b1-3)Gal(b1-4)GlcNAc(b1-3)Gal(b1-4)GlcNAc(b1-3)Gal(b1-4)GlcNAc(b1-2)Man(a1-6)]Man(b1-4)GlcNAc(b1-4)GlcNAc
# How it was run: as §1
# [17] = biological target: GlcNAc(b1-3)Gal(b1-4)GlcNAc(b1-3)Gal(b1-4)GlcNAc(b1-3)Gal(b1-4)GlcNAc(b1-2)Man(a1-3)[GlcNAc(b1-3)Gal(b1-4)GlcNAc(b1-3)Gal(b1-4)GlcNAc(b1-3)Gal(b1-4)GlcNAc(b1-2)Man(a1-6)]Man(b1-4)GlcNAc(b1-4)[Fuc(a1-6)]GlcNAc
# How it was run: as §1
# [18] = biological target: GlcNAc(b1-3)Gal(b1-4)GlcNAc(b1-3)Gal(b1-4)GlcNAc(b1-3)Gal(b1-4)GlcNAc(b1-2)[GlcNAc(b1-3)Gal(b1-4)GlcNAc(b1-3)Gal(b1-4)GlcNAc(b1-3)Gal(b1-4)GlcNAc(b1-6)]Man(a1-6)[GlcNAc(b1-3)Gal(b1-4)GlcNAc(b1-3)Gal(b1-4)GlcNAc(b1-3)Gal(b1-4)GlcNAc(b1-2)Man(a1-3)]Man(b1-4)GlcNAc(b1-4)[Fuc(a1-6)]GlcNAc
# How it was run: as §1
# [19] = biological target: GlcNAc(b1-3)Gal(b1-4)GlcNAc(b1-3)Gal(b1-4)GlcNAc(b1-3)Gal(b1-4)GlcNAc(b1-3)Gal(b1-4)GlcNAc(b1-2)Man(a1-3)[GlcNAc(b1-3)Gal(b1-4)GlcNAc(b1-3)Gal(b1-4)GlcNAc(b1-3)Gal(b1-4)GlcNAc(b1-3)Gal(b1-4)GlcNAc(b1-2)Man(a1-6)]Man(b1-4)GlcNAc(b1-4)GlcNAc
# How it was run: as §1
# [20] = biological target: GlcNAc(b1-3)Gal(b1-4)GlcNAc(b1-3)Gal(b1-4)GlcNAc(b1-3)Gal(b1-4)GlcNAc(b1-3)Gal(b1-4)GlcNAc(b1-2)Man(a1-3)[GlcNAc(b1-3)Gal(b1-4)GlcNAc(b1-3)Gal(b1-4)GlcNAc(b1-3)Gal(b1-4)GlcNAc(b1-3)Gal(b1-4)GlcNAc(b1-2)Man(a1-6)]Man(b1-4)GlcNAc(b1-4)[Fuc(a1-6)]GlcNAc
# How it was run: as §1
# [21] = biological target: GlcNAc(b1-3)Gal(b1-4)GlcNAc(b1-3)Gal(b1-4)GlcNAc(b1-3)Gal(b1-4)GlcNAc(b1-3)Gal(b1-4)GlcNAc(b1-2)[GlcNAc(b1-3)Gal(b1-4)GlcNAc(b1-3)Gal(b1-4)GlcNAc(b1-3)Gal(b1-4)GlcNAc(b1-3)Gal(b1-4)GlcNAc(b1-6)]Man(a1-6)[GlcNAc(b1-3)Gal(b1-4)GlcNAc(b1-3)Gal(b1-4)GlcNAc(b1-3)Gal(b1-4)GlcNAc(b1-3)Gal(b1-4)GlcNAc(b1-2)Man(a1-3)]Man(b1-4)GlcNAc(b1-4)[Fuc(a1-6)]GlcNAc
# How it was run: as §1
# [22] = biological target: GlcNAc(b1-3)Gal(b1-4)GlcNAc(b1-3)Gal(b1-4)GlcNAc(b1-3)GalNAc
# How it was run: as §1
# [23] = biological target: GlcNAc(b1-3)Gal(b1-4)GlcNAc(b1-3)GalNAc
# How it was run: as §1
# [24] = biological target: GlcNAc(b1-3)Gal(b1-4)GlcNAc(b1-3)[GlcNAc(b1-3)Gal(b1-4)GlcNAc(b1-3)]GalNAc
# How it was run: as §1
# [25] = biological target: GlcNAc(b1-3)Gal(b1-4)GlcNAc(b1-6)[Gal(b1-3)]GalNAc
# How it was run: as §1
# [26] = biological target: GlcNAc(b1-3)Gal(b1-4)GlcNAc(b1-6)[GlcNAc(b1-3)Gal(b1-3)]GalNAc
# How it was run: as §1
# [27] = biological target: GlcNAc(b1-3)Gal(b1-4)GlcNAc(b1-6)[GlcNAc(b1-3)]Gal(b1-4)GlcNAc
# How it was run: as §1
# [28] = biological target: GlcNAc(b1-3)GalNAc
# How it was run: as §1
# [29] = biological target: GlcNAc(b1-3)Man
# How it was run: as §1
# [30] = biological target: GlcNAc(b1-3)[GlcNAc(b1-4)][GlcNAc(b1-6)]GlcNAc
# How it was run: as §1
# [31] = biological target: GlcNAc(b1-3)[GlcNAc(b1-6)]Gal(b1-4)GlcNAc
# How it was run: as §1
# [32] = biological target: GlcNAc(b1-3)[GlcNAc(b1-6)]GalNAc
# How it was run: as §1
# [33] = biological target: GlcNAc(b1-4)Gal(b1-4)GlcNAc
# How it was run: as §1
# [34] = biological target: GlcNAc(b1-4)GlcNAc
# How it was run: as §1
# [35] = biological target: GlcNAc(b1-4)GlcNAc(b1-4)GlcNAc
# How it was run: as §1
# [36] = biological target: GlcNAc(b1-4)GlcNAc(b1-4)GlcNAc(b1-4)GlcNAc(b1-4)GlcNAc
# How it was run: as §1
# [37] = biological target: GlcNAc(b1-4)GlcNAc(b1-4)GlcNAc(b1-4)GlcNAc(b1-4)GlcNAc(b1-4)GlcNAc
# How it was run: as §1
# [38] = biological target: GlcNAc(b1-4)[GlcNAc(b1-6)]GalNAc
# How it was run: as §1
# [39] = biological target: GlcNAc(b1-6)Gal(b1-4)GlcNAc
# How it was run: as §1
# [40] = biological target: GlcNAc(b1-6)GalNAc
# How it was run: as §1
# [41] = biological target: GlcNAc3Prop(b1-4)GlcNAc
# How it was run: as §1
# [42] = biological target: GlcNAc6S(b1-3)Gal(b1-4)GlcNAc
# How it was run: as §1
# [43] = biological target: Kdn(a2-3)Gal(b1-3)GalNAc
# How it was run: as §1
# [44] = biological target: Kdn(a2-3)Gal(b1-3)GlcNAc
# How it was run: as §1
# [45] = biological target: Kdn(a2-3)Gal(b1-4)Glc
# How it was run: as §1
binder,measurement,setting,value
B1,glycan array binding signal (z-score),[1],-0.083
same,glycan array binding signal (z-score),[2],-0.755
same,glycan array binding signal (z-score),[3],-0.185
same,glycan array binding signal (z-score),[4],-0.621
same,glycan array binding signal (z-score),[5],-0.281
same,glycan array binding signal (z-score),[6],-0.218
same,glycan array binding signal (z-score),[7],-0.644
same,glycan array binding signal (z-score),[8],-0.32
same,glycan array binding signal (z-score),[9],0.029
same,glycan array binding signal (z-score),[10],-0.386
same,glycan array binding signal (z-score),[11],3.45
same,glycan array binding signal (z-score),[12],-0.278
same,glycan array binding signal (z-score),[13],1.64
same,glycan array binding signal (z-score),[14],0.269
same,glycan array binding signal (z-score),[15],1.25
same,glycan array binding signal (z-score),[16],-0.253
same,glycan array binding signal (z-score),[17],0.692
same,glycan array binding signal (z-score),[18],0.345
same,glycan array binding signal (z-score),[19],-0.337
same,glycan array binding signal (z-score),[20],-0.584
same,glycan array binding signal (z-score),[21],-0.202
same,glycan array binding signal (z-score),[22],-0.068
same,glycan array binding signal (z-score),[23],-0.509
same,glycan array binding signal (z-score),[24],-0.518
same,glycan array binding signal (z-score),[25],-0.4
same,glycan array binding signal (z-score),[26],-0.43
same,glycan array binding signal (z-score),[27],-0.627
same,glycan array binding signal (z-score),[28],-0.283
same,glycan array binding signal (z-score),[29],-0.109
same,glycan array binding signal (z-score),[30],-0.104
same,glycan array binding signal (z-score),[31],-0.323
same,glycan array binding signal (z-score),[32],-0.116
same,glycan array binding signal (z-score),[33],-0.278
same,glycan array binding signal (z-score),[34],-0.128
same,glycan array binding signal (z-score),[35],-0.159
same,glycan array binding signal (z-score),[36],-0.541
same,glycan array binding signal (z-score),[37],-0.424
same,glycan array binding signal (z-score),[38],-0.727
same,glycan array binding signal (z-score),[39],-0.329
same,glycan array binding signal (z-score),[40],-0.168
same,glycan array binding signal (z-score),[41],-0.011
same,glycan array binding signal (z-score),[42],-0.145
same,glycan array binding signal (z-score),[43],-0.382
same,glycan array binding signal (z-score),[44],-0.25
same,glycan array binding signal (z-score),[45],-0.311

# Reprinted at random: three records from the list.
binder,measurement,setting,value
B1,glycan array binding signal (z-score),[3],-0.185
same,glycan array binding signal (z-score),[45],-0.311
same,glycan array binding signal (z-score),[12],-0.278
